The assay is described as follows: qHTS Assay for Modulators of Lamin A Splicing. As to conditions: HeLa LMNA splicing GFP/RFP minigene ratio, 48 h. The procedure, abridged:
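S3 HeLa cells stably expressing lamin A-EGFP splicing minigene plus DsRed2, 600 cells/well, 48 h compound exposure at 37C. Laser-scanning cytometry; analysed as GFP (500-530 nm)/RFP (575-640 nm) total intensity ratio; 0.5% DMSO vehicle.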
(qHTS replaces the single test concentration by a dilution series.)

Setting [1] is: measured here: GFP splicing reporter channel.
Setting [2] is: measured here: RFP viability control channel.

Molecules are shown by their SMILES. The list shows a part of the results. Further columns of the screen follow, without active or inactive calls. Most of these compounds were active or inconclusive in the main read-out, so they are no random draw. Potencies come from curve fits of mixed quality, noted in brackets.

The AC50 is the midpoint of the concentration-response curve, whichever way the signal moves. Consider `CSc1nc2c(cnn2-c2ccc(C)c(C)c2)c(=O)[nH]1`, for which the AC50 is, setting by setting: under setting [1], 7.08 µM [falling, partial curve, poor fit]; under setting [2], 7.08 µM [falling, partial curve, poor fit].

On to `CN1/C(=C\C(=O)COC(=O)C2COc3ccccc3O2)C(C)(C)c2ccccc21` (stereo not given), for which, under setting [2], the AC50 was 10 µM [rising, single point].

With `Cn1cccc1/C=C1\SC(=S)N(NC(=O)c2ccc(Cl)cc2)C1=O`, under setting [2], the AC50 is 28.2 µM [rising, partial curve].

Turning to `Cc1ccc(NS(=O)(=O)c2ccc3[nH]c4c(c3c2)CCCCCC4)cc1C`, the half-maximal activity concentration (AC50) is 22.4 µM [falling, single point] under setting [1] and 35.5 µM [falling, single point] under setting [2].

As for `CCc1ccc(CN(C)Cc2nc(-c3cccc(Cl)c3)no2)nc1`, the concentration at half-maximal activity (AC50) runs as follows: under setting [1], 35.5 µM [falling, single point]; under setting [2], 22.4 µM [falling, single point].

Take `CCOC(=O)COc1ccc(C(=O)Nc2cccc(Cl)c2C)cc1`: the AC50 under setting [2] was 6.31 µM [rising, single point].

Regarding `CCCCN(CCCNC(=O)C1CCN(S(=O)(=O)N2CCOCC2)CC1)c1ccccc1`, the AC50 under setting [2] was 35.5 µM [rising, single point].

On to `COc1ccc(NC(=O)Cc2coc3cc(C)c(C(C)C)cc23)cc1S(=O)(=O)N1CCOCC1`, for which the half-maximal activity concentration (AC50) under setting [2] was 11.2 µM [rising, partial curve, poor fit].

Take `CCOc1ccccc1CNC(=O)CCCn1c(=O)c2cccn2c2ccc(F)cc21`: the AC50 under setting [2] was 0.0562 µM [falling, full curve, poor fit].

With `CCc1c(C)sc(NC(=S)N2CC(C)OC(C)C2)c1C(=O)OC` (stereo not given), the AC50 is 11.2 µM [rising, partial curve] under setting [1] and 11.2 µM [rising, partial curve] under setting [2].

For `Cn1c(C(=O)NCc2ccccc2F)cc2cc(S(=O)(=O)N3CCCCC3)ccc21`, under setting [1], the half-maximal activity concentration (AC50) was 25.1 µM [falling, single point].

For the molecule `COc1cccc(/C=N/NC(=O)c2ccc([N+](=O)[O-])cc2Cl)c1O`, under setting [2], the AC50 is 12.6 µM [rising, partial curve].

Consider `Cc1cc(C)n(CC(=O)Nc2cccc(C(F)(F)F)c2)n1`, for which, under setting [2], the AC50 is 0.01 µM [falling, full curve, poor fit].

On to `CCN(CC)CCOCCOC(=O)C(CC)(CC)c1ccccc1` (tested in a mixture with another compound), for which the AC50 runs as follows: under setting [1], 0.00708 µM [falling, full curve]; under setting [2], 35.5 µM [rising, single point].

In the case of `N/C(=N\O)c1ccccc1-n1cccc1`, the AC50 is, setting by setting: under setting [1], 8.91 µM [falling, partial curve]; under setting [2], 25.1 µM [falling, partial curve, poor fit].

Regarding `Cc1ccc(SCC(=O)NC(=O)NC(C)C)c(C)c1`, the AC50 under setting [2] was 3.16 µM [falling, single point].

Take `Cc1cc2c(cc(C(=O)OC(C(=O)NCc3ccco3)C(C)C)n2C)o1` (stereo not given): the AC50 under setting [2] is 15.8 µM [rising, partial curve].

Consider `OC(COc1ccc2c(c1)CCC2)CN1CCN(c2cccc(Cl)c2)CC1` (stereo not given), for which, under setting [2], the AC50 is 31.6 µM [rising, single point].

Regarding `O=C(Nc1ccccc1)Nc1cc([N+](=O)[O-])ccc1F`, under setting [2], the AC50 was 22.4 µM [rising, single point].

Turning to `CCNc1ncc2nc(-c3cc(F)cc(F)c3)c(=O)n(C3CC3)c2n1`, the AC50 runs as follows: under setting [1], 14.1 µM [falling, partial curve, poor fit]; under setting [2], 22.4 µM [falling, partial curve, poor fit].

For the molecule `CCN(CC)C(=O)c1sc2c(c1C)c(=O)n(Cc1ccccc1)c(=O)n2Cc1c(C)cc(C)cc1C`, the AC50 under setting [1] is 35.5 µM [rising, single point].

With `C/C(=N\NC(=S)NC1CCCCC1)c1c(F)cccc1F`, the AC50 under setting [2] is 35.5 µM [falling, single point].

On to `O=C(NCC(c1cccs1)N1CCOCC1)c1ccccc1NS(=O)(=O)c1ccc(Br)cc1` (stereo not given), for which the AC50 under setting [2] was 31.6 µM [rising, single point].

On to `CCOC(=O)c1ccc(NC(=O)c2c(NCc3ccc(OC)c(OC)c3OC)sc3c2CCC(C)C3)cc1` (stereo not given), for which the half-maximal activity concentration (AC50) under setting [1] was 1 µM [rising, partial curve, poor fit] and the AC50 under setting [2] was 25.1 µM [rising, single point].

Consider `COc1ccccc1OCC(=O)N/N=C/C=C/c1ccc([N+](=O)[O-])o1`, for which the half-maximal activity concentration (AC50) under setting [1] is 12.6 µM [falling, single point] and the AC50 under setting [2] is 11.2 µM [falling, partial curve].

In the case of `CCn1c(SCC(=O)Nc2ccccc2)nnc1-c1ccc(S(=O)(=O)N2CCOCC2)cc1`, the AC50 runs as follows: under setting [1], 20 µM [rising, partial curve, poor fit]; under setting [2], 28.2 µM [rising, partial curve].

With `CCOc1ccc(C(c2c(O)cc(C)n(CCOC)c2=O)N2CCN(c3ccc(F)cc3)CC2)cc1` (stereo not given), under setting [2], the concentration at half-maximal activity (AC50) is 15.8 µM [rising, single point].

Take `O=C(NC(=S)N1CCc2ccccc21)c1ccccc1`: the AC50 under setting [2] was 35.5 µM [rising, single point].

For the molecule `NNC(=O)/C(=N/Nc1ccccc1)S(=O)(=O)c1ccc(Cl)cc1`, under setting [2], the AC50 is 35.5 µM [rising, single point].

With `CCCC(c1nnnn1CC(=O)OCC)N(Cc1cc2c(C)cc(C)cc2[nH]c1=O)C1CCCC1` (stereo not given), under setting [2], the AC50 is 35.5 µM [rising, single point].

For the molecule `Cc1ccccc1C1C(C#N)=C2N=C(N)c3c(sc4c3CCCCC4)N2C2=C1C(=O)CCC2` (stereo not given), the AC50 under setting [1] is 35.5 µM [rising, single point].

Turning to `Cc1nn2c(-c3cccc(NC(=O)c4ccco4)c3)nnc2c2ccccc12`, under setting [2], the half-maximal activity concentration (AC50) was 14.1 µM [rising, single point].

As for `C=CCOc1cccc(C2C(C(=O)c3cccs3)=C(O)C(=O)N2Cc2cccnc2)c1` (stereo not given), the AC50 under setting [1] was 0.0708 µM [rising, full curve, poor fit] and the AC50 under setting [2] was 0.0501 µM [rising, full curve, poor fit].

Consider `CCCCn1c(C)cc(C)c(S(=O)(=O)c2ccccc2C)c1=O`, for which the AC50 runs as follows: under setting [1], 35.5 µM [rising, single point]; under setting [2], 35.5 µM [rising, single point].

In the case of `CCN(CC)S(=O)(=O)c1ccc2oc(C(=O)N3CCc4ccccc4C3)c(C)c2c1`, the AC50 by setting is: under setting [1], 14.1 µM [rising, partial curve]; under setting [2], 22.4 µM [rising, partial curve].

`Cc1ccc(S(=O)(=O)n2nccc2-c2c(-c3ccccc3)noc2C)cc1`: under setting [1], the AC50 was 0.0282 µM [rising, full curve].

As for `CC(=O)Nc1sc2c(c1C(c1ccc(F)cc1)N1CCOCC1)CCCC2` (stereo not given), the AC50 under setting [1] is 35.5 µM [rising, single point].

As for `COc1ccc(CCN(C)C(=O)c2ccc(S(=O)(=O)NCc3ccco3)cc2)cc1OC`, the AC50 is 5.62 µM [rising, single point] under setting [1] and 3.16 µM [rising, full curve, poor fit] under setting [2].

On to `Cc1cc2cc(CNC(=S)Nc3ccc(OC(F)F)cc3)ccc2[nH]1`, for which the AC50 was 35.5 µM [rising, single point] under setting [1] and 35.5 µM [rising, single point] under setting [2].

For `CCCC1=C/C(=C/c2ccc(-c3ccccc3OC)o2)C(=O)O1`, under setting [1], the concentration at half-maximal activity (AC50) was 31.6 µM [rising, single point].

Regarding `COc1ccc(Cc2noc(CN(C)CC3(N4CCOCC4)CCCCC3)n2)cc1OC`, the AC50 under setting [2] was 0.224 µM [falling, full curve, poor fit].

For `Cc1cc(C(=O)CSc2nc(N)cc(N)n2)c(C)n1C1CC1`, the AC50 under setting [2] is 0.0251 µM [falling, full curve, poor fit].

Consider `C(=N\Nc1nc(N2CCCC2)nc(N2CCCC2)n1)/c1ccncc1`, for which the AC50 under setting [1] was 6.31 µM [rising, single point] and the AC50 under setting [2] was 0.794 µM [rising, partial curve, poor fit].

Turning to `Cc1cccc(-c2ncc(CN3CCN(CC(C)C)C(CCO)C3)cn2)c1` (stereo not given), the AC50 is, setting by setting: under setting [1], 0.02 µM [falling, full curve, poor fit]; under setting [2], 0.0631 µM [falling, full curve, poor fit].

As for `Cc1ccc(NC(=O)C2C(=O)N(C)c3ccccc32)cc1` (stereo not given), the AC50 by setting is: under setting [1], 1.58 µM [rising, partial curve]; under setting [2], 0.891 µM [rising, full curve, poor fit].

Regarding `COc1ccc2cc3cc(C(=O)NCCN4CCc5ccccc5C4)oc3nc2c1`, the AC50 under setting [2] was 12.6 µM [rising, single point].

With `Clc1ccccc1-c1nc(N/N=C/c2cccnc2)c2ccccc2n1`, the AC50 under setting [1] is 14.1 µM [falling, single point].

Turning to `Cc1cc(C)nc(NC(=O)c2ccc(Cl)cc2Cl)n1`, the AC50 under setting [2] is 0.00355 µM [falling, full curve, poor fit].

For `Cc1ccc(-n2nc3c([n+]2[O-])CCc2c-3no[n+]2[O-])cc1`, under setting [1], the AC50 was 35.5 µM [rising, single point].

As to `CCOC(=O)c1cccc(Nc2nc(-c3cccnc3)nc3ccccc23)c1`, the AC50 runs as follows: under setting [1], 14.1 µM [falling, partial curve]; under setting [2], 25.1 µM [falling, partial curve].

As to `Cc1noc(C)c1-c1ccc2ncnc(N3CCN(C)CC3)c2c1`, the half-maximal activity concentration (AC50) under setting [1] was 3.98 µM [falling, partial curve].

Turning to `Cc1cccc2cc3c(N)c(C(=O)N4CCc5ccccc54)sc3nc12`, the AC50 under setting [2] is 5.01 µM [rising, full curve, poor fit].

`CN(C)c1ccc(-c2cncnc2Nc2ccccc2)cc1`: the AC50 under setting [1] was 10 µM [falling, partial curve].

Turning to `CCN(CC)c1ccc(NC(=O)c2ccc(Cl)nc2)cc1`, the AC50 under setting [1] was 35.5 µM [rising, single point] and the AC50 under setting [2] was 22.4 µM [rising, single point].

Consider `COC(=O)Cc1c(C(=O)OC)nnn1-c1ccc(OC)cc1`, for which the concentration at half-maximal activity (AC50) under setting [1] is 35.5 µM [falling, single point].

These data come from PubChem BioAssay AID1487 (National Center for Advancing Translational Sciences (NCATS), 2009).
